Measurements from the supplement of paper PMC12889115.
Some of the results follow. These are raw signals, not scaled to a control.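 Primary screen: polymyxin B was added at a level permeabilizing Salmonella outer membranes while sparing inner membranes. DMSO wells, both with and without polymyxin B, established maximum growth. Plate-to-plate variation meant each plate was ranked on its own, and the lowest-OD600 compounds were selected as hits.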

Tested on: Salmonella enterica serovar Typhimurium SL1344
Assay: bacterial growth OD600 after 18 h with compound and polymyxin B; higher = more bacterial growth (less inhibition)
Conditions: 50 µM, Mueller-Hinton broth

SMILES	bacterial growth OD600 (polymyxin B 0.75 µg/mL)	bacterial growth OD600 (polymyxin B 1 µg/mL)
CC#CCN(Cc1ccco1)C(=O)c1cc(Cn2nc(C)cc2C)[nH]n1	0.848	–
CSc1ccc(C(=O)NC2CCCN(CCc3ccccc3)C2)cc1 (centres undefined)	0.773	–
COc1ccc(CN2C[C@@H]3C[C@@H](c4cc(C)c(O)c(C)c4)N4CCC[C@@]34C2=O)cc1	0.74	–
CCOC(=O)N1CCN(Cc2ccc3c(c2)CN(C(=O)c2cc(C4CC4)on2)CCO3)CC1	0.721	–
COC(=O)[C@H](Cc1ccccc1)NC(=O)C1(N(C)C)Cc2ccccc2C1	0.746	–
CO[C@H]1[C@H](NC(=O)c2cccs2)c2ccccc2C12CCN(Cc1nc(C(C)C)cs1)CC2	0.883	–
COC1CCN(Cc2cn(C)nc2-c2ccc(C3CCCCC3)cc2)CC1	–	0.7
CCOCCCNC1CCN(c2ccc(C(=O)N3CCN(C(=O)OCC)CC3)cc2)CC1	0.798	–
COCC(C)NC(=O)C1CCCN(c2nc(C)c3ccc(S(C)(=O)=O)cc3n2)C1 (centres undefined)	0.785	–
O=C(NC1CC1)c1cn(C2CCCCC2)cc(C(=O)NC(c2ccccn2)C(F)(F)F)c1=O (centres undefined)	0.013	–
CCOC(=O)C1(Cc2ccccc2Cl)CCN(S(=O)(=O)c2cc(C)cs2)CC1	–	0.873
Cc1nc(N2CCC(C(=O)NCC(C)C)CC2)nc2cc(S(C)(=O)=O)ccc12	0.781	–
COCc1c(C(=O)NCCc2ccccn2)cnn1-c1ncc2c(n1)-c1ccccc1CCC2	0.824	–
COCCN1C(=O)NC(Cc2cccc(F)c2)(C2CCN(C(=O)c3cccc(Cl)c3)CC2)C1=O (centres undefined)	0.747	–
O=C(CCC1CCN(C(=O)[C@@H]2C[C@@H]3C=C[C@H]2C3)CC1)N1CCN(c2ccccc2)CC1	–	0.879
CN(c1ncccc1CNC(=O)c1cccnc1)C1CCCCC1	–	0.895
COc1cccc(C(=O)C2CCCN(Cc3ccc(OC)c(C)c3OC)C2)c1 (centres undefined)	–	0.762
O=C(CCc1cnccn1)N1CCCC(CCc2cccc(C(F)(F)F)c2)C1 (centres undefined)	0.555	–
CCOc1cc(CN2CCC3(CC2)c2ccccc2[C@@H](NC(=O)CC)[C@@H]3OCCOC)ccc1OC	0.894	–

Entries listed so far that have a thiophene ring, fused or not (two):
SMILES	bacterial growth OD600 (polymyxin B 0.75 µg/mL)	bacterial growth OD600 (polymyxin B 1 µg/mL)
CO[C@H]1[C@H](NC(=O)c2cccs2)c2ccccc2C12CCN(Cc1nc(C(C)C)cs1)CC2	0.883	–
CCOC(=O)C1(Cc2ccccc2Cl)CCN(S(=O)(=O)c2cc(C)cs2)CC1	–	0.873
